Measured values as given in patent US6443892B1, “Sweat collecting device and methods for use and detection of tampering” (The United States of America as represented by the …, priority 2000, dated 2002).
For at least one compound, name, drawing or mass did not settle the structure. Some entries share one result that the patent states for a list of compounds. Some compounds share one range, which may span the group rather than tell each member.

Legend:
[1] = CFWO of air-gap sweat patch in drug vapor chamber; conditions: patch with air gap and screen vs similarly constructed patch without; wetted with artificial sweat, exposed to drug vapors
[2] = basic media, cited from earlier work; for amounts detected as share of drugs deposited on the surface of the sweat patch: two hour time course

Compound: COC(=O)[C@H]1[C@@H](OC(=O)c2ccccc2)C[C@@H]2CC[C@H]1N2C [cocaine]
- reduction of CFWO [1]: 98%
- amounts detected as share of drugs deposited on the surface of the sweat patch [2]: 5-17%
- earliest collection time with detectable concentrations after drugs placed on outside of membrane [2]: approximately 30 seconds

Compound: CC(=O)Oc1ccc2c3c1O[C@H]1[C@@H](OC(C)=O)C=C[C@H]4[C@@H](C2)N(C)CC[C@@]341 [heroin]
- amounts detected as share of drugs deposited on the surface of the sweat patch [2]: 5-17%

Compound: CN[C@@H](C)Cc1ccccc1 [methamphetamine]
- amounts detected as share of drugs deposited on the surface of the sweat patch [2]: 5-17%
